In patent US20110151485A1, “METHOD FOR SCREENING FOR ANTIANGIOGENIC AGENT, AND METHOD FOR SCREENING FOR ANTIANGIOGENIC SIGNAL GENE” (National University Corporation Tokyo Medical and Dental …, priority 2008, published 2011):
For at least one compound, name, drawing or mass did not settle the structure.

What was measured:
integrinαv gene = assay: real-time quantitative RT-PCR, integrinαv gene, human umbilical vein endothelial cells; format: cell-based; conditions: 4 to 8 hours
ID1 gene = assay: real-time quantitative RT-PCR, ID1 gene, human umbilical vein endothelial cells; format: cell-based; conditions: 4 to 8 hours
ATF2 = assay: quantitative western blotting, phospho-ATF2; format: cell-based, rat; conditions: rAEC, rifampicin 40 μg/ml, 37° C., 10 minutes
PKR [1] = assay: western blotting with phospho-specific anti-PKR antibody, human umbilical vein endothelial cells (hUVEC); format: cell-based; conditions: 40 μg/ml rifampicin or 1.0×10^−9 M endostatin, 10 to 240 minutes
Description: (§1) Human retina vessel endothelial cells (hREC) or human umbilical vein endothelial cells (hUVEC) cultured in HamF12K medium supplemented with 10% bovine fetal serum and growth factors were treated with either 40 μg/ml rifampicin or 1.0×10^−9 M endostatin, and maintained at 37° C. for 10 to 240 minutes. Total cell extracts from the maintained cells were then subjected to western blotting using phospho-specific anti-PKR antibody to examine the time course of PKR phosphorylation.

PKR [2] = assay: western blotting with phospho-specific anti-PKR antibody, human retina vessel endothelial cells (hREC); format: cell-based; conditions: 40 μg/ml rifampicin or 1.0×10^−9 M endostatin, 10 to 240 minutes
Description: as §1

eIF2α [3] = assay: quantitative western blotting, phospho-eIF2α; format: cell-based, rat; conditions: rAEC, rifampicin 40 μg/ml, 37° C., 10 minutes
STAT5A = assay: quantitative western blotting, phospho-STAT5A; format: cell-based, rat; conditions: rAEC, rifampicin 40 μg/ml, 37° C., 10 minutes
Flt gene = assay: real-time quantitative RT-PCR, Flt gene, human umbilical vein endothelial cells; format: cell-based; conditions: 4 to 8 hours
PKR1 = assay: Kinex antibody microarray, phosphorylation of PKR1; format: cell-based; conditions: Rat aorta endothelial cells, rifampicin 40 μg/ml, 37° C., 10 minutes
PKR [4] = assay: fluorescent antibody staining with phospho-specific anti-PKR antibody, human umbilical vein endothelial cells; format: cell-based
Description: Human umbilical endothelial cells cultured in HamF12K were treated with 40 μg/ml of rifampicin or 1.0×10^−9 M of endostatin, and maintained at 37° C. for 30 minutes. Cells were then stained using phospho-specific anti-PKR antibody as the primary antibody, and the presence of phosphorylated PKR was examined in the cells.
Similar experiments were also performed in human umbilical vein endothelial cells pre-treated with structural analog of PKR inhibitor (PKR negative) and then treated with 40 μg/ml rifampicin, as well as in human umbilical vein endothelial cells pre-treated with PKR inhibitor B (8-(imidazole-4-ylmethylene)-6H-azolidino [5,4-g]benzodiazole-7-one, 0.3 μM) and then treated with 40 μg/ml rifampicin or 1.0×10^−9 M endostatin, respectively.

PKR [5] = assay: western blotting with phospho-specific anti-PKR antibody, aorta endothelial cells (rAEC); format: cell-based; conditions: rat aorta derived primary endothelial cells, 4 or 8 hours
Description: Similarly, […] aorta endothelial cells (rAEC) were treated respectively with salubrinal (20 μM), rifampicin (40 μg/ml), or endostatin (1.0×10^−9 M); PKR inhibitor A (2-aminopurine, 10 mM) followed by endostatin (1.0×10^−9 M); PKR inhibitor B (8-(imidazole-4-ylmethylene)-6H-azolidino [5,4-g]benzodiazole-7-one, 0.3 μM) followed by rifampicin (40 μg/ml); and PKR inhibitor B (same as above, 0.3 μM) followed by endostatin (1.0×10^−9 M); and maintained at 37° C. for 4 or 8 hours. Total cell extracts from respective samples were subjected to western blotting analysis using phospho-specific anti-PKR antibody to determine the extent of PKR phosphorylation.

Bad = assay: Kinex antibody microarray, phosphorylation of Bad; format: cell-based; conditions: Rat aorta endothelial cells, rifampicin 40 μg/ml, 37° C., 10 minutes
PKCδ = assay: quantitative western blotting, phospho-PKCδ; format: cell-based, rat; conditions: rAEC, rifampicin 40 μg/ml, 37° C., 10 minutes
ID3 gene = assay: real-time quantitative RT-PCR, ID3 gene, human umbilical vein endothelial cells; format: cell-based; conditions: 4 to 8 hours
Ephrin A1 gene = assay: real-time quantitative RT-PCR, Ephrin A1 gene, human umbilical vein endothelial cells; format: cell-based; conditions: 4 to 8 hours
eIF2α [6] = assay: Kinex antibody microarray, phosphorylation of eIF2α; format: cell-based; conditions: Rat aorta endothelial cells, rifampicin 40 μg/ml, 37° C., 10 minutes
STAT1 = assay: quantitative western blotting, phospho-STAT1; format: cell-based, rat; conditions: rAEC, rifampicin 40 μg/ml, 37° C., 10 minutes
PKR mRNA = assay: real-time quantitative RT-PCR, PKR mRNA, human umbilical vein endothelial cells; format: cell-based; conditions: 40 μg/ml rifampicin or 1.0×10^−8 M endostatin, 4 to 8 hours
Description: Human umbilical vein endothelial cells cultured in HamF12K medium were treated with 40 μg/ml rifampicin or 1.0×10^−8 M endostatin, and maintained at 37° C. for 4 to 8 hours. Subsequently, total cell extracts were subjected to real-time quantitative RT-PCR using TaqMan probe for PKR mRNA, and the amount of PKR mRNA was quantified. Similar processes were repeated for human umbilical vein endothelial cell samples that were transfected with PKR siRNA prior to rifampicin or endostatin treatment.

[7] = hUVEC transfected with PKR siRNA prior to 40 μg/ml rifampicin or 1.0×10^−8 M endostatin
[8] = hUVEC, 40 μg/ml rifampicin or 1.0×10^−8 M endostatin

SMILES: CO[C@H]1/C=C/O[C@@]2(C)Oc3c(C)c(O)c4c(O)c(c(/C=N/N5CCN(C)CC5)c(O)c4c3C2=O)NC(=O)/C(C)=C\C=C\[C@H](C)[C@H](O)[C@@H](C)[C@@H](O)[C@@H](C)[C@H](OC(C)=O)[C@@H]1C [rifampicin]
- decrease of expression of integrinαv gene in PKR siRNA treated samples (integrinαv gene; [7]): did not occur
- expression level of integrinαv gene (integrinαv gene; [8]): decreased
- decrease of expression of ID1 gene in PKR siRNA treated samples (ID1 gene; [7]): did not occur
- expression level of ID1 gene (ID1 gene; [8]): decreased
- phosphorylation of ATF2 (quantitative western blotting) (ATF2): confirmed to also increase
- phosphorylation of PKR (PKR [1]): enhanced
- phosphorylation of PKR (PKR [2]): enhanced
- phosphorylation of eIF2α (quantitative western blotting) (eIF2α [3]): confirmed to also increase
- phosphorylation of STAT5A (quantitative western blotting) (STAT5A): confirmed to also increase
- decrease of expression of Flt gene in PKR siRNA treated samples (Flt gene; [7]): did not occur
- expression level of Flt gene (Flt gene; [8]): decreased
- phosphorylation of PKR1 (antibody microarray) (PKR1): significantly increased phosphorylation
- PKR phosphorylation in the cell (fluorescent antibody) (PKR [4]; 40 μg/ml rifampicin or 1.0×10^−9 M endostatin, 30 minutes): induced enhancement of PKR phosphorylation
- PKR phosphorylation in cells pre-treated with specific PKR inhibitor (fluorescent antibody) (PKR [4]; PKR inhibitor B 0.3 μM, then 40 μg/ml rifampicin or 1.0×10^−9 M endostatin): did not occur
- phosphorylation of PKR in cells pre-treated with specific PKR inhibitor (PKR [5]; PKR inhibitor B 0.3 μM followed by rifampicin 40 μg/ml or endostatin 1.0×10^−9 M): did not induce PKR phosphorylation
- phosphorylation of PKR (PKR [5]; rifampicin 40 μg/ml or endostatin 1.0×10^−9 M): induced phosphorylation of PKR
- phosphorylation of Bad (antibody microarray) (Bad): significantly increased phosphorylation
- phosphorylation of PKCδ (quantitative western blotting) (PKCδ): confirmed to also increase
- decrease of expression of ID3 gene in PKR siRNA treated samples (ID3 gene; [7]): did not occur
- expression level of ID3 gene (ID3 gene; [8]): decreased
- decrease of expression of Ephrin A1 gene in PKR siRNA treated samples (Ephrin A1 gene; [7]): did not occur
- expression level of Ephrin A1 gene (Ephrin A1 gene; [8]): decreased
- phosphorylation of eIF2α (antibody microarray) (eIF2α [6]): significantly increased phosphorylation
- increase of phosphorylation of STAT1 (quantitative western blotting) (STAT1): not confirmed
- PKR expression (PKR mRNA) (PKR mRNA): increased
